# Assay results from US20250283871A1, “COMPOSITIONS AND METHODS FOR MODULATING THE INTERACTION BETWEEN SS18-SSX FUSION ONCOPROTEIN AND NUCLEOSOMES” (Dana-Farber Cancer Institute, Inc., priority 2020, published 2025).
# B1: ACAD8 (protein, UniProt Q9UKU7 23-415, looked up)
# Isobutyryl-CoA dehydrogenase, …: LVQTGHRSLTSCIDPSMGLNEEQKEFQKVAFDFAAREMAPNMAEWDQKELFPVDVMRKAAQLGFGGVYIQTDVGGSGLSRLDTSVIFEALATGCTSTTAYISIHNMCAWMIDSFGNEEQRHKFCPPLCTMEKFASYCLTEPGSGSDAASLLTSAKKQGDHYILNGSKAFISGAGESDIYVVMCRTGGPGPKGISCIVVEKGTPGLSFGKKEKKVGWNSQPTRAVIFEDCAVPVANRIGSEGQGFLIAVRGLNGGRINIASCSLGAAHASVILTRDHLNVRKQFGEPLASNQYLQFTLADMATRLVAARLMVRNAAVALQEERKDAVALCSMAKLFATDECFAICNQALQMHGGYGYLKDYAVQQYVRDSRVHQILEGSNEVMRILISRSLLQE
# B2: RFT1 (protein, UniProt Q96AA3 1-541, looked up)
# Man(5)GlcNAc(2)-PP-dolichol …: MGSQEVLGHAARLASSGLLLQVLFRLITFVLNAFILRFLSKEIVGVVNVRLTLLYSTTLFLAREAFRRACLSGGTQRDWSQTLNLLWLTVPLGVFWSLFLGWIWLQLLEVPDPNVVPHYATGVVLFGLSAVVELLGEPFWVLAQAHMFVKLKVIAESLSVILKSVLTAFLVLWLPHWGLYIFSLAQLFYTTVLVLCYVIYFTKLLGSPESTKLQTLPVSRITDLLPNITRNGAFINWKEAKLTWSFFKQSFLKQILTEGERYVMTFLNVLNFGDQGVYDIVNNLGSLVARLIFQPIEESFYIFFAKVLERGKDATLQKQEDVAVAAAVLESLLKLALLAGLTITVFGFAYSQLALDIYGGTMLSSGSGPVLLRSYCLYVLLLAINGVTECFTFAAMSKEEVDRYNFVMLALSSSFLVLSYLLTRWCGSVGFILANCFNMGIRITQSLCFIHRYYRRSPHRPLAGLHLSPVLLGTFALSGGVTAVSEVFLCCEQGWPARLAHIAVGAFCLGATLGTAFLTETKLIHFLRTQLGVPRRTDKMT
# B3: XXYLT1 (protein, UniProt Q8NBI6 1-393, looked up)
# Xyloside xylosyltransferase 1: MGLLRGGLPCARAMARLGAVRSHYCALLLAAALAVCAFYYLGSGRETFSSATKRLKEARAGAPAAPSPPALELARGSVAPAPGAKAKSLEGGGAGPVDYHLLMMFTKAEHNAALQAKARVALRSLLRLAKFEAHEVLNLHFVSEEASREVAKGLLRELLPPAAGFKCKVIFHDVAVLTDKLFPIVEAMQKHFSAGLGTYYSDSIFFLSVAMHQIMPKEILQIIQLDLDLKFKTNIRELFEEFDSFLPGAIIGIAREMQPVYRHTFWQFRHENPQTRVGGPPPEGLPGFNSGVMLLNLEAMRQSPLYSRLLEPAQVQQLADKYHFRGHLGDQDFFTMIGMEHPKLFHVLDCTWNRQLCTWWRDHGYSDVFEAYFRCEGHVKIYHGNCNTPIPED
# B4: TIMM22 (protein, UniProt Q9Y584 1-194, looked up)
# Mitochondrial import inner …: MAAAAPNAGGSAPETAGSAEAPLQYSLLLQYLVGDKRQPRLLEPGSLGGIPSPAKSEEQKMIEKAMESCAFKAALACVGGFVLGGAFGVFTAGIDTNVGFDPKDPYRTPTAKEVLKDMGQRGMSYAKNFAIVGAMFSCTECLIESYRGTSDWKNSVISGCITGGAIGFRAGLKAGAIGCGGFAAFSAAIDYYLR
# B5: SLC5A6 (protein, UniProt Q9Y289 1-635, looked up)
# Sodium-dependent multivitamin …: MSVGVSTSAPLSPTSGTSVGMSTFSIMDYVVFVLLLVLSLAIGLYHACRGWGRHTVGELLMADRKMGCLPVALSLLATFQSAVAILGVPSEIYRFGTQYWFLGCCYFLGLLIPAHIFIPVFYRLHLTSAYEYLELRFNKTVRVCGTVTFIFQMVIYMGVVLYAPSLALNAVTGFDLWLSVLALGIVCTVYTALGGLKAVIWTDVFQTLVMFLGQLAVIIVGSAKVGGLGRVWAVASQHGRISGFELDPDPFVRHTFWTLAFGGVFMMLSLYGVNQAQVQRYLSSRTEKAAVLSCYAVFPFQQVSLCVGCLIGLVMFAYYQEYPMSIQQAQAAPDQFVLYFVMDLLKGLPGLPGLFIACLFSGSLSTISSAFNSLATVTMEDLIRPWFPEFSEARAIMLSRGLAFGYGLLCLGMAYISSQMGPVLQAAISIFGMVGGPLLGLFCLGMFFPCANPPGAVVGLLAGLVMAFWIGIGSIVTSMGSSMPPSPSNGSSFSLPTNLTVATVTTLMPLTTFSKPTGLQRFYSLSYLWYSAHNSTTVIVVGLIVSLLTGRMRGRSLNPATIYPVLPKLLSLLPLSCQKRLHCRSYGQDHLDTGLFPEKPRNGVLGDSRDKEAMALDGTAYQGSSSTCILQETSL
# B6: VANGL1 (protein, UniProt Q8TAA9 1-524, looked up)
# Vang-like protein 1: MDTESTYSGYSYYSSHSKKSHRQGERTRERHKSPRNKDGRGSEKSVTIQPPTGEPLLGNDSTRTEEVQDDNWGETTTAITGTSEHSISQEDIARISKDMEDSVGLDCKRYLGLTVASFLGLLVFLTPIAFILLPPILWRDELEPCGTICEGLFISMAFKLLILLIGTWALFFRKRRADMPRVFVFRALLLVLIFLFVVSYWLFYGVRILDSRDRNYQGIVQYAVSLVDALLFIHYLAIVLLELRQLQPMFTLQVVRSTDGESRFYSLGHLSIQRAALVVLENYYKDFTIYNPNLLTASKFRAAKHMAGLKVYNVDGPSNNATGQSRAMIAAAARRRDSSHNELYYEEAEHERRVKKRKARLVVAVEEAFIHIQRLQAEEQQKAPGEVMDPREAAQAIFPSMARALQKYLRITRQQNYHSMESILQHLAFCITNGMTPKAFLERYLSAGPTLQYDKDRWLSTQWRLVSDEAVTNGLRDGIVFVLKCLDFSLVVNVKKIPFIILSEEFIDPKSHKFVLRLQSETSV
# B7: ATP2C1 (protein, UniProt P98194 1-919, looked up)
# Calcium-transporting ATPase …: MKVARFQKIPNGENETMIPVLTSKKASELPVSEVASILQADLQNGLNKCEVSHRRAFHGWNEFDISEDEPLWKKYISQFKNPLIMLLLASAVISVLMHQFDDAVSITVAILIVVTVAFVQEYRSEKSLEELSKLVPPECHCVREGKLEHTLARDLVPGDTVCLSVGDRVPADLRLFEAVDLSIDESSLTGETTPCSKVTAPQPAATNGDLASRSNIAFMGTLVRCGKAKGVVIGTGENSEFGEVFKMMQAEEAPKTPLQKSMDLLGKQLSFYSFGIIGIIMLVGWLLGKDILEMFTISVSLAVAAIPEGLPIVVTVTLALGVMRMVKKRAIVKKLPIVETLGCCNVICSDKTGTLTKNEMTVTHIFTSDGLHAEVTGVGYNQFGEVIVDGDVVHGFYNPAVSRIVEAGCVCNDAVIRNNTLMGKPTEGALIALAMKMGLDGLQQDYIRKAEYPFSSEQKWMAVKCVHRTQQDRPEICFMKGAYEQVIKYCTTYQSKGQTLTLTQQQRDVYQQEKARMGSAGLRVLALASGPELGQLTFLGLVGIIDPPRTGVKEAVTTLIASGVSIKMITGDSQETAVAIASRLGLYSKTSQSVSGEEIDAMDVQQLSQIVPKVAVFYRASPRHKMKIIKSLQKNGSVVAMTGDGVNDAVALKAADIGVAMGQTGTDVCKEAADMILVDDDFQTIMSAIEEGKGIYNNIKNFVRFQLSTSIAALTLISLATLMNFPNPLNAMQILWINIIMDGPPAQSLGVEPVDKDVIRKPPRNWKDSILTKNLILKILVSSIIIVCGTLFVFWRELRDNVITPRDTTMTFTCFVFFDMFNALSSRSQTKSVFEIGLCSNRMFCYAVLGSIMGQLLVIYFPPLQKVFQTESLSILDLLFLLGLTSSVCIVAEIIKKVERSREKIQKHVSSTSSSFLEV
# B8: RAP2B (protein, UniProt P61225 1-180, looked up)
# Ras-related protein Rap-2b: MREYKVVVLGSGGVGKSALTVQFVTGSFIEKYDPTIEDFYRKEIEVDSSPSVLEILDTAGTEQFASMRDLYIKNGQGFILVYSLVNQQSFQDIKPMRDQIIRVKRYERVPMILVGNKVDLEGEREVSYGEGKALAEEWSCPFMETSAKNKASVDELFAEIVRQMNYAAQPNGDEGCCSAC
# B9: TCERG1 (protein, UniProt O14776 1-1098, looked up)
# Transcription elongation …: MAERGGDGGESERFNPGELRMAQQQALRFRGPAPPPNAVMRGPPPLMRPPPPFGMMRGPPPPPRPPFGRPPFDPNMPPMPPPGGIPPPMGPPHLQRPPFMPPPMSSMPPPPGMMFPPGMPPVTAPGTPALPPTEEIWVENKTPDGKVYYYNARTRESAWTKPDGVKVIQQSELTPMLAAQAQVQAQAQAQAQAQAQAQAQAQAQAQAQAQAQAQAQAQAQAQAQAQAQAQAQAQAQAQAQAQVQAQVQAQVQAQAVGASTPTTSSPAPAVSTSTSSSTPSSTTSTTTTATSVAQTVSTPTTQDQTPSSAVSVATPTVSVSTPAPTATPVQTVPQPHPQTLPPAVPHSVPQPTTAIPAFPPVMVPPFRVPLPGMPIPLPGVAMMQIVSCPYVKTVATTKTGVLPGMAPPIVPMIHPQVAIAASPATLAGATAVSEWTEYKTADGKTYYYNNRTLESTWEKPQELKEKEKLEEKIKEPIKEPSEEPLPMETEEEDPKEEPIKEIKEEPKEEEMTEEEKAAQKAKPVATAPIPGTPWCVVWTGDERVFFYNPTTRLSMWDRPDDLIGRADVDKIIQEPPHKKGMEELKKLRHPTPTMLSIQKWQFSMSAIKEEQELMEEINEDEPVKAKKRKRDDNKDIDSEKEAAMEAEIKAARERAIVPLEARMKQFKDMLLERGVSAFSTWEKELHKIVFDPRYLLLNPKERKQVFDQYVKTRAEEERREKKNKIMQAKEDFKKMMEEAKFNPRATFSEFAAKHAKDSRFKAIEKMKDREALFNEFVAAARKKEKEDSKTRGEKIKSDFFELLSNHHLDSQSRWSKVKDKVESDPRYKAVDSSSMREDLFKQYIEKIAKNLDSEKEKELERQARIEASLREREREVQKARSEQTKEIDREREQHKREEAIQNFKALLSDMVRSSDVSWSDTRRTLRKDHRWESGSLLEREEKEKLFNEHIEALTKKKREHFRQLLDETSAITLTSTWKEVKKIIKEDPRCIKFSSSDRKKQREFEEYIRDKYITAKADFRTLLKETKFITYRSKKLIQESDQHLKDVEKILQNDKRYLVLDCVPEERRKLIVAYVDDLDRRGPPPPPTASEPTRRSTK
# B10: YIF1A (protein, UniProt O95070 2-293, looked up)
# Protein YIF1A: AYHSGYGAHGSKHRARAAPDPPPLFDDTSGGYSSQPGGYPATGADVAFSVNHLLGDPMANVAMAYGSSIASHGKDMVHKELHRFVSVSKLKYFFAVDTAYVAKKLGLLVFPYTHQNWEVQYSRDAPLPPRQDLNAPDLYIPTMAFITYVLLAGMALGIQKRFSPEVLGLCASTALVWVVMEVLALLLGLYLATVRSDLSTFHLLAYSGYKYVGMILSVLTGLLFGSDGYYVALAWTSSALMYFIVRSLRTAALGPDSMGGPVPRQRLQLYLTLGAAAFQPLIIYWLTFHLVR
# Tested on: BAF complex subunits and histone proteins
# Assay: Mass spectrometry proteomics of purified HA-SS18 WT and HA-SS18-SSX1 complexes (Tables 5A-5E)
# Set-up: species or system human
# Conditions: HA-SS18SSX1_NE_peptides: protein co-purified with HA-SS18-SSX1 BAF complexes from soluble nuclear extract (NE), HEK-293T cells
Molecule,Total (peptides),Unique (peptides)
B1,1,1
B2,1,1
B3,1,1
B4,1,1
B5,1,1
B6,1,1
B7,1,1
B8,1,1
B9,1,1
B10,1,1

# Same assay, conditions: HA-SS18WT_NE_peptides: proteins co-purified with HA-SS18 WT from nuclear extract (NE), HEK-293T
Molecule,Total (peptides),Unique (peptides)
B2,2,2
B4,1,1
B6,1,1
B8,2,2
B9,1,1
B10,1,1
